PubChem BioAssay AID743454 – Peter MacCallum Cancer Centre – 2014
Test: 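Knock-downs lowering viability or raising caspase 3/7 activity in vorinostat-treated resistant cells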 (primary screen). Cell system: human HCT116-VR colon cancer cells, selected for vorinostat resistance. Reagent: siRNA pool against human genes, 40 nM siRNA pool. Time to read-out: vorinostat for 24 h, read-out about 72 h after transfection. Treatment: vorinostat at 2.5 µM final. Measurement: 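Cell viability by CellTiter-Fluor and caspase 3/7 activity by luminescence, each scaled to mock wells per plate, duplicates averaged, then robust z-scored over all plates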. Scale: viability robust z-score: higher = more viable cells than screen typical; caspase robust z-score: higher = more caspase 3/7 activity than screen typical. Active means: 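Hits are knock-downs in viability class RV1/RV2 or caspase class CA1/CA2, excluding ones that killed cells in the no-drug cell-count arm; hits then retested with single siRNAs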.
The whole screen tested about 18,000 reagents; shown is a part drawn at random. 450 of all reagents (2.5%) were called active. 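Single biological run; no consistent viability z cut-off exists, so the class columns, not z-scores, define the calls.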 Entries without a mark were called inactive.

Which result is listed for FBXO46?
viability hit class: no change; caspase hit class: no change; viability robust z-score: 0.66; caspase robust z-score: -0.24

With LHX1, what was measured?
viability hit class: no change; caspase hit class: no change; viability robust z-score: 0.84; caspase robust z-score: 1.39

What did the screen give for EXTL1?
viability hit class: no change; caspase hit class: no change; viability robust z-score: 1.31; caspase robust z-score: -0.48

For PCSK4, what does the deposit list?
viability hit class: no change; caspase hit class: no change; viability robust z-score: 0.98; caspase robust z-score: 0.34

For UBE2Q1, how do the results read?
viability hit class: no change (active); caspase hit class: CA1 (caspase activation); viability robust z-score: -0.64; caspase robust z-score: 6.09

For QRSL1, what was measured?
viability hit class: no change; caspase hit class: no change; viability robust z-score: -0.44; caspase robust z-score: -1.27

With MAEA, what was measured?
viability hit class: no change; caspase hit class: no change; viability robust z-score: 0.91; caspase robust z-score: -0.2

Which result is listed for HMGN2?
viability hit class: no change; caspase hit class: no change; viability robust z-score: -4.74; caspase robust z-score: 1.41

With POC1A, what was measured?
viability hit class: no change; caspase hit class: no change; viability robust z-score: 0.73; caspase robust z-score: -0.75

Which result is listed for PITRM1?
viability hit class: no change; caspase hit class: no change; viability robust z-score: -0.21; caspase robust z-score: -0.62

What did the screen give for NSL1?
viability hit class: no change; caspase hit class: no change; viability robust z-score: 0.55; caspase robust z-score: 1.25

What did the screen give for CASP8?
viability hit class: no change; caspase hit class: no change; viability robust z-score: 1.64; caspase robust z-score: -0.82

Part of the list above, reduced to “viability robust z-score”:
NSL1: 0.55
CASP8: 1.64
